PubChem BioAssay AID2551 (National Center for Advancing Translational Sciences (NCATS), 2010)
Among all 310,000 compounds or so, about 17,000 (5.5%) were called active. Inconclusive results, whose numbers are uncertain, are shown with a selection of clear calls. The call rests on the fitted dose curve; in most records, active means well fitted inhibition curve with a large enough effect; inconclusive means small, poorly fitted or top-dose-only effect, or effect the other way; inactive means no such curve, though single readings can be large or run the other way. Potencies of inconclusive entries are doubtful fits and often do not repeat.

Amino acid sequences for entries named in this document (tags omitted). A change or cut given only in a name is not applied to a line headed by its entry.
UniProt P51450: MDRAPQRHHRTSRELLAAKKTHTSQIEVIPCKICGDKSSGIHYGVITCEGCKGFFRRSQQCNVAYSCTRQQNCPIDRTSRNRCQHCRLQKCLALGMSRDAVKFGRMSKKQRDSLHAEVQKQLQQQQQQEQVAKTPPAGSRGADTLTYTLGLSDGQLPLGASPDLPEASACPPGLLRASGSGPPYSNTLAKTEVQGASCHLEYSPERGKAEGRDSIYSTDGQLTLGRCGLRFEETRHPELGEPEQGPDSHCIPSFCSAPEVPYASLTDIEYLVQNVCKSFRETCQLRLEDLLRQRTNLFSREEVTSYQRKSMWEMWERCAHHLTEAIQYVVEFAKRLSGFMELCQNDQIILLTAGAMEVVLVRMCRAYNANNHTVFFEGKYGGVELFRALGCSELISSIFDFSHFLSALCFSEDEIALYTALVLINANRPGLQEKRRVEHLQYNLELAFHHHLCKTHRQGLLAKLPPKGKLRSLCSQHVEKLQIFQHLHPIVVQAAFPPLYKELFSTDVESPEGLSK

These molecules were tested against Nuclear receptor ROR-gamma (Mus musculus) (UniProt P51450) (assay: qHTS for inhibitors of ROR gamma transcriptional activity). Settings: Drosophila S2 Gal4-RORgamma UAS-luciferase reporter, 20 h; activity change, negative = inhibition: at 53.6 µM (top of the series).
Outline: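 In this cell-based reporter format, copper sulfate (700 uM final) drives Gal4–ROR gamma fusion expression from a metallothionein promoter in Drosophila Schneider cells; compounds preincubated 1 hr, reporter read after 20 hr at ambient temperature.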
Further: nearly all actives have a fitted effect of over 60% in size.
On the % scale 0 is the no-effect control and ±100 the full control effect; potency means the concentration at half of the fitted maximal effect.

Potency, inconclusive:
C/C(=N\NC(=O)OC(C)(C)C)c1cccc([N+](=O)[O-])c1 0.0708 µM [activator, full curve, poor fit]
Cc1ccc(N2CS(=O)(=O)/C(=C/N(C)C)C2=O)cc1 35.5 µM [inhibitor, single point]
C/C=C1\COC(C(=O)NCc2ccccc2)(C(F)(F)F)C=C1C=C1CCCCC1 (stereo unspecified) 35.5 µM [inhibitor, single point]
CC1C(c2ccccc2)C(C#N)(C#N)C2(C#N)C(=O)NC1(N)C2C (stereo unspecified) 35.5 µM [inhibitor, single point]
O=C(NCc1cccnc1)C(C(=O)c1ccc(F)cc1)n1ccccc1=O (stereo unspecified) 35.5 µM [activator, single point]
FCCCOc1ccc(-c2nccc(-c3ccc(F)cc3)n2)cc1 35.5 µM [activator, single point]
O=C(CCCn1c(=S)[nH]c2cc3c(cc2c1=O)OCO3)N1CCN(C2CCCCC2)CC1 17.8 µM [inhibitor, single point]
Cc1ccn(CC(=O)NC2CC(C)(C)Cc3c2cnn3-c2ccc(F)cc2)n1 (stereo unspecified) 12.6 µM [activator, single point]
Cc1ccnc(SCC(=O)Nc2sc3c(c2C#N)CCCC3)n1 35.5 µM [inhibitor, single point]
COc1ccc(C(=O)c2ccc(Cl)c([N+](=O)[O-])c2)cc1 35.5 µM [activator, single point]
COc1cc(C(C[N+](=O)[O-])c2c(-c3ccccc3)cc3ccccn23)cc(OC)c1OC (stereo unspecified) 5.62 µM [inhibitor, single point]
CC(C)CNC(=O)c1noc2c1CCCC2 6.31 µM [activator, full curve, poor fit]
CCc1nnc(NC(=O)C2Cc3ccccc3CN2S(=O)(=O)c2ccc(C)cc2)s1 (stereo unspecified) 7.08 µM [inhibitor, partial curve]
O=C(O)CCCC(=O)NNc1ncnc2ccccc12 35.5 µM [inhibitor, single point]
Cc1noc(C)c1-c1ccc2ncnc(NC(C)c3ccco3)c2c1 (stereo unspecified) 7.08 µM [inhibitor, partial curve, poor fit]
COc1ccc(C(C(=O)NC2CCCCC2)N(C(=O)CCl)c2ccc(Cl)cc2)cc1 (stereo unspecified) 12.6 µM [inhibitor, single point]
CC(CC(=O)Nc1nc2ccccc2[nH]1)c1ccccc1 (stereo unspecified) 20 µM [inhibitor, single point]
COc1ccc(NC(=O)CSc2ccc(F)cc2)cc1S(=O)(=O)N1CCCCC1 31.6 µM [activator, single point]
O=[N+]([O-])c1ccc(-c2cn(-c3ccccc3)c(=S)[nH]2)cc1 0.316 µM [inhibitor, full curve]
O=C(Nc1nc2cc3c(cc2s1)OCO3)c1ccco1 5.62 µM [inhibitor, single point]
CCn1nc(C)cc1C(=O)N1CCCC(CCC(=O)NCc2ccccc2F)C1 (stereo unspecified) 15.8 µM [activator, partial curve, poor fit]
O=C(O)CSc1cc(NS(=O)(=O)c2cccc([N+](=O)[O-])c2)c2ccccc2c1O 35.5 µM [inhibitor, single point]
COc1ccccc1NS(=O)(=O)c1ccc2oc(SCc3ccc(C#N)cc3)nc2c1 11.2 µM [activator, partial curve]
COc1ccc(-c2nc(NC(=O)C3CC(=O)N(c4ccc5c(c4)OCCO5)C3)sc2C)cc1 (stereo unspecified) 10 µM [activator, partial curve]
COCCOC(=O)c1c(C)oc2ccc(NS(=O)(=O)c3ccc(C)cc3)cc12 7.08 µM [activator, full curve, poor fit]
CC(C)(C)c1cc(C(=O)Nc2ccccc2)ccn1 35.5 µM [activator, single point]
N#CC1=C(N)NC(SCc2ccc(Cl)cc2)=C(C#N)C12CCCCC2 35.5 µM [activator, single point]

Some of these compounds in order of number of heavy atoms, smallest number first:
Potency, inconclusive:
CC(C)(C)c1cc(C(=O)Nc2ccccc2)ccn1 35.5 µM [activator, single point]
Cc1noc(C)c1-c1ccc2ncnc(NC(C)c3ccco3)c2c1 (stereo unspecified) 7.08 µM [inhibitor, partial curve, poor fit]
CCc1nnc(NC(=O)C2Cc3ccccc3CN2S(=O)(=O)c2ccc(C)cc2)s1 (stereo unspecified) 7.08 µM [inhibitor, partial curve]

Following part:

Potency, active:
COc1ccc(/C=C2\C(=O)ON=C2c2ccccc2)cc1OC 12.6 µM
O=c1c2ccccc2nc(/C=C/c2ccc([N+](=O)[O-])o2)n1CCCO 8.91 µM
C=CCNC(=S)/N=c1/ccccn1CC 10 µM
N#Cc1cc(-c2ccccc2)[nH]c1-c1nccc2ccccc12 10 µM
NCCCCCc1nnc(SCc2ccc(Cl)cc2Cl)o1 8.91 µM
O=C(Nc1nnc(-c2ccccc2)o1)NC1CCCCC1 2.51 µM
COc1ccc(/C=C/c2noc(-c3ccccc3OC(C)=O)n2)cc1 11.2 µM
C=CCN(CC=C)C(=S)NC(=O)c1ccc(-c2ccccc2)cc1 0.501 µM

Potency, inactive:
O=C(CCN1C(=O)C2C3C=CC(C3)C2C1=O)N1CCN(c2ccccc2F)CC1 (stereo unspecified)
NC(=O)CCNC(=O)c1ccc(Cl)cc1
Cc1cc(C)c(C)c(S(=O)(=O)NC2CCN(Cc3ccccc3)CC2)c1C
COc1ccc(C(=O)Nc2ccc(C(=O)Nc3cccc(C)c3)cc2)cc1
COc1ccc(S(=O)(=O)CCC(=O)Nc2cc(C)ccc2OC)cc1
O=S(=O)(c1ccc(F)cc1)N1CCN=C1SCc1cccnc1
Cc1ccc(N2CN(S(=O)(=O)c3cccc([N+](=O)[O-])c3)c3nc4ccccc4nc32)cc1
C=CCNC(=O)c1onc(CSc2ccncc2)c1C(=O)NCC=C
COC(=O)CC1C(=O)NCCN1C(=S)Nc1ccccc1 (stereo unspecified)

Activity change, negative = inhibition, inactive:
N#CN=C1SCCS1 1.01% [at 10 µM]
Cc1nc(N2CCN(C(=O)c3ccco3)CC2)c2c3c(sc2n1)CCC3 -20.3% [at 10 µM]
